Results deposited as PubChem BioAssay AID1224828 (NIAID, 2016)
Assay: 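Find genes required for NF-kappaB p65 moving into the nucleus after LPS in mouse macrophages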 (primary screen). System: mouse RAW264.7 G9 macrophage reporter cells (GFP-p65, Tnf promoter-mCherry). Reagent: siRNA pool against mouse genes, 100 nM. Timing: 2 days siRNA transfection, then 40 min LPS before fixation. Challenge: LPS (Salmonella minnesota R595) at 10 ng/ml. Measurement: 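Microscopy ratio of nuclear to perinuclear-ring GFP-p65 signal, scaled to the plate median; gene score is the average of two replicate robust z-scores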. Scale: p65 translocation robust z-score: higher = more nuclear NF-kappaB p65 after LPS than the plate median; nuclear/cytoplasmic p65 ratio: higher = more nuclear NF-kappaB p65. Call rule: 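Called active when z exceeds 3.3 or falls under -1.56 (median of Tlr4 controls), giving activity score of at least 50; no calls for control wells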. Calls: active = hit (p65 shift raised or lowered); inactive = no clear change.
This is one part, drawn at random, of about 17,000 reagents tested. Over the whole deposit, 762 (4.5%) are marked active. 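Active calls include both raised and lowered p65 entry, mostly lowered; wells with fewer than 50 cells lack a z-score.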 The raw values are shown without normalisation. Unmarked entries are inactive.

Silencing of Or3a1d resulted in: nuclear/cytoplasmic p65 ratio, rep 1 = 1.54; nuclear/cytoplasmic p65 ratio, rep 2 = 1.28; low cell count flag fewer than 50 cells per well; well left out of scoring.
For Or2ag1b, the values are nuclear/cytoplasmic p65 ratio, rep 1 = 0.831; nuclear/cytoplasmic p65 ratio, rep 2 = 1.17; low cell count flag fewer than 50 cells per well; well left out of scoring.
Silencing of Sik2 gave: p65 translocation robust z-score -0.75; nuclear/cytoplasmic p65 ratio, rep 1 = 1.61; nuclear/cytoplasmic p65 ratio, rep 2 = 1.25; low cell count flag enough cells to score.
Casp6 gave p65 translocation robust z-score 0.3; nuclear/cytoplasmic p65 ratio, rep 1 = 1.7; nuclear/cytoplasmic p65 ratio, rep 2 = 1.62; low cell count flag enough cells to score.
H2-M11 gave p65 translocation robust z-score 0.55; nuclear/cytoplasmic p65 ratio, rep 1 = 1.68; nuclear/cytoplasmic p65 ratio, rep 2 = 1.67; low cell count flag enough cells to score.
For Wdr45b, the values are p65 translocation robust z-score 0.05; nuclear/cytoplasmic p65 ratio, rep 1 = 1.49; nuclear/cytoplasmic p65 ratio, rep 2 = 1.51; low cell count flag enough cells to score.
Silencing of Or1j17 came out at: p65 translocation robust z-score -1.41; nuclear/cytoplasmic p65 ratio, rep 1 = 1.4; nuclear/cytoplasmic p65 ratio, rep 2 = 1.24; low cell count flag enough cells to score.
Against Nthl1, the entry reads p65 translocation robust z-score -0.59; nuclear/cytoplasmic p65 ratio, rep 1 = 1.39; nuclear/cytoplasmic p65 ratio, rep 2 = 1.31; low cell count flag enough cells to score.
After knock-down of Rims3, the screen gave p65 translocation robust z-score -0.93; nuclear/cytoplasmic p65 ratio, rep 1 = 1.41; nuclear/cytoplasmic p65 ratio, rep 2 = 1.11; low cell count flag enough cells to score.
With knock-down of Nsg1, the screen gave p65 translocation robust z-score -0.68; nuclear/cytoplasmic p65 ratio, rep 1 = 1.55; nuclear/cytoplasmic p65 ratio, rep 2 = 1.48; low cell count flag enough cells to score.
Against U2af1, the values are nuclear/cytoplasmic p65 ratio, rep 1 = 1.25; nuclear/cytoplasmic p65 ratio, rep 2 = 1.17; low cell count flag fewer than 50 cells per well; well left out of scoring.
Depletion of Ftl2-ps gave: p65 translocation robust z-score 0.91; nuclear/cytoplasmic p65 ratio, rep 1 = 1.77; nuclear/cytoplasmic p65 ratio, rep 2 = 1.55; low cell count flag enough cells to score.
Silencing of Hes7 gave: p65 translocation robust z-score -1.58 (active); nuclear/cytoplasmic p65 ratio, rep 1 = 1.29; nuclear/cytoplasmic p65 ratio, rep 2 = 1.11; low cell count flag enough cells to score.
Knock-down of Ing3 gave: p65 translocation robust z-score -0.16; nuclear/cytoplasmic p65 ratio, rep 1 = 1.48; nuclear/cytoplasmic p65 ratio, rep 2 = 1.34; low cell count flag enough cells to score.
Silencing of Pptc7 came out at: p65 translocation robust z-score 2.2; nuclear/cytoplasmic p65 ratio, rep 1 = 1.87; nuclear/cytoplasmic p65 ratio, rep 2 = 2.01; low cell count flag enough cells to score.
With knock-down of Kcnt1, the screen gave p65 translocation robust z-score 0.35; nuclear/cytoplasmic p65 ratio, rep 1 = 1.48; nuclear/cytoplasmic p65 ratio, rep 2 = 1.37; low cell count flag enough cells to score.
Slc33a2 showed nuclear/cytoplasmic p65 ratio, rep 1 = 1.03; nuclear/cytoplasmic p65 ratio, rep 2 = 1.36; low cell count flag fewer than 50 cells per well; well left out of scoring.
Against Txnrd2, the values are p65 translocation robust z-score -0.56; nuclear/cytoplasmic p65 ratio, rep 1 = 1.45; nuclear/cytoplasmic p65 ratio, rep 2 = 1.09; low cell count flag enough cells to score.
Silencing of Jam3 resulted in: p65 translocation robust z-score 0.1; nuclear/cytoplasmic p65 ratio, rep 1 = 1.58; nuclear/cytoplasmic p65 ratio, rep 2 = 1.43; low cell count flag enough cells to score.
Knock-down of Top2a resulted in: p65 translocation robust z-score 0.34; nuclear/cytoplasmic p65 ratio, rep 1 = 1.56; nuclear/cytoplasmic p65 ratio, rep 2 = 1.57; low cell count flag enough cells to score.
With knock-down of H2-Eb1, the screen gave p65 translocation robust z-score 1.17; nuclear/cytoplasmic p65 ratio, rep 1 = 1.44; nuclear/cytoplasmic p65 ratio, rep 2 = 1.67; low cell count flag enough cells to score.
Or2a51 scored p65 translocation robust z-score 1.42; nuclear/cytoplasmic p65 ratio, rep 1 = 1.58; nuclear/cytoplasmic p65 ratio, rep 2 = 1.48; low cell count flag enough cells to score.
Against Rmnd1, the entry reads p65 translocation robust z-score 0.68; nuclear/cytoplasmic p65 ratio, rep 1 = 1.5; nuclear/cytoplasmic p65 ratio, rep 2 = 1.67; low cell count flag enough cells to score.
With knock-down of 2610528J11Rik the results were nuclear/cytoplasmic p65 ratio, rep 1 = 1.18; nuclear/cytoplasmic p65 ratio, rep 2 = 1.29; low cell count flag fewer than 50 cells per well; well left out of scoring.
With knock-down of Cspg4, the screen gave p65 translocation robust z-score 0.13; nuclear/cytoplasmic p65 ratio, rep 1 = 1.6; nuclear/cytoplasmic p65 ratio, rep 2 = 1.8; low cell count flag enough cells to score.
After knock-down of Lyrm2, the record shows p65 translocation robust z-score -2.15 (active); nuclear/cytoplasmic p65 ratio, rep 1 = 1.14; nuclear/cytoplasmic p65 ratio, rep 2 = 1.15; low cell count flag enough cells to score.
After knock-down of Rin1, the record shows p65 translocation robust z-score 0; nuclear/cytoplasmic p65 ratio, rep 1 = 1.47; nuclear/cytoplasmic p65 ratio, rep 2 = 1.56; low cell count flag enough cells to score.

Limited to “p65 translocation robust z-score” (2 entries from above):
Txnrd2 = -0.56
Jam3 = 0.1
